According to patent publication US20110135632A1:
No constants are given. Whether binding was seen depends on the method and setting. Binding seen in cells or lysates may run through a third protein. Some results given as binding are weak or reduced against the parent protein; the word gives no strength.

Protein sequences, listed by entry. Tags and fused reporters are not part of them. Lines headed by an entry give the natural chain unless they say otherwise; changes in a name come on top.
UniProt P78347: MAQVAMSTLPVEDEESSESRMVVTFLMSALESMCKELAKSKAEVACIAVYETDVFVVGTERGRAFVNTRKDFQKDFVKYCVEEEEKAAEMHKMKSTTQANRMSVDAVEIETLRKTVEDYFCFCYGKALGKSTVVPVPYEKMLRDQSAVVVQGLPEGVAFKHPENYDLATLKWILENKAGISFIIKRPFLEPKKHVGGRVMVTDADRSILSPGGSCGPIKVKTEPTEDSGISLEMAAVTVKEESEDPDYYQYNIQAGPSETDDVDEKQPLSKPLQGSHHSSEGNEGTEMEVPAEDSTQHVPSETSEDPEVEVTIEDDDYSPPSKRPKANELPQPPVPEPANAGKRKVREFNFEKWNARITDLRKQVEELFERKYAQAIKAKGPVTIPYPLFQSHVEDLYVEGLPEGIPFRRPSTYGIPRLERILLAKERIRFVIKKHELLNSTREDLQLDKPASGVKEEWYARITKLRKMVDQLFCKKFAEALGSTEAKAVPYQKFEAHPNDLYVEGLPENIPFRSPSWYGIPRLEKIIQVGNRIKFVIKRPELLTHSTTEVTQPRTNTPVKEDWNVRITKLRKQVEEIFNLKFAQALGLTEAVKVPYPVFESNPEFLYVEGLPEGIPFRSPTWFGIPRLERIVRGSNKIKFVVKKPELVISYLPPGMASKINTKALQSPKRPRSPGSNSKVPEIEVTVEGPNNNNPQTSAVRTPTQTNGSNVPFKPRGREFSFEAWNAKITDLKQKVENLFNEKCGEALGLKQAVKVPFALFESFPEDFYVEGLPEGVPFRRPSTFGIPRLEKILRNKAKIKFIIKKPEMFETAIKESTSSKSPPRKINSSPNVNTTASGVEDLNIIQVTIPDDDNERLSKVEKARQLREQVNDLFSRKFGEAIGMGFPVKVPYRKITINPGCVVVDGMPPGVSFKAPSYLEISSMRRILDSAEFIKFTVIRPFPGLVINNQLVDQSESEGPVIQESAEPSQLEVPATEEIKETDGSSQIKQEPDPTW
UniProt P23769: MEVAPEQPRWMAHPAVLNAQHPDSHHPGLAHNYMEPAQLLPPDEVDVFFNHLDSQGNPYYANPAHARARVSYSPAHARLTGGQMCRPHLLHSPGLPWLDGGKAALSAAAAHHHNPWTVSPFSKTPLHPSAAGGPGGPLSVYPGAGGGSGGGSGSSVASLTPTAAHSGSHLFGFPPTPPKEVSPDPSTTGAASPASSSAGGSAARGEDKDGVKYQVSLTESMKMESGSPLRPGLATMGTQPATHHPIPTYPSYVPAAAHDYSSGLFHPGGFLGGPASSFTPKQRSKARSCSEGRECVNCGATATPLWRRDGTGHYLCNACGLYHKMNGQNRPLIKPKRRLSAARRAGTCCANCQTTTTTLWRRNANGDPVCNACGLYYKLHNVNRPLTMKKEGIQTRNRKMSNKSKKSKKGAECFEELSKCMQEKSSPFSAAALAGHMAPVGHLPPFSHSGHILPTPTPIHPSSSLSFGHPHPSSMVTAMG

How the values were obtained:
human TFII-I (human) [1] = target: human TFII-I (human) (UniProt P78347); assay: co-immunoprecipitation in cells overexpressing HA-GATA2, immunoblot (FIG. 11A)
human TFII-I (human) [2] = target: human TFII-I (human) (UniProt P78347); assay: co-immunoprecipitation, immunoblot (FIG. 11A)
human TFII-I (human) [3] = target: human TFII-I (human) (UniProt P78347); assay: co-immunoprecipitation, immunoblot (FIG. 11B)
human TFII-I (human) [4] = target: human TFII-I (human) (UniProt P78347); assay: co-immunoprecipitation with anti-TFII-I antibody in p190RhoGAP knockdown HMVE cells (FIG. 11B)

| binding (human TFII-I (human) [1]) | binding (human TFII-I (human) [2]) | binding (human TFII-I (human) [3]) | binding (human TFII-I (human) [4]) | Substance |
| --- | --- | --- | --- | --- |
| binds | binds | – | – | HA-GATA2 (from UniProt P23769 1-480) |
| – | – | binds | binds | human GATA2 (from UniProt P23769 1-480) |
